Reference: PMC5374410, “Identification of a Potent Allosteric Inhibitor of Human Protein Kinase CK2 by Bacterial Surface Display Library Screening” (Pharmaceuticals, 2017)
These are yes or no findings as the source states them, for the method shown. Some entries that bind do so weakly or less than the wild type.

Columns and labels:
Experiment in all cases: non-reducing SDS-PAGE; outer membrane fractions of E. coli with the autotransporter fusion proteins, sample buffer without dithiothreitol; the dimer band disappeared under reducing conditions (data not shown)
[1] = target: library peptide B1 displayed on E. coli UT5600(DE3) by autodisplay (plasmid pCR31)
[2] = target: library peptide B2 displayed on E. coli UT5600(DE3) by autodisplay (plasmid pCR33)
[3] = target: library peptide B4 displayed on E. coli UT5600(DE3) by autodisplay (plasmid pCR36)

With KHTKGPTAYCPL [library peptide B1 displayed on E. coli UT5600(DE3) by autodisplay (plasmid pCR31)] the binding [1] was “binds”.

DCRGLIVMIKLH [library peptide B2 displayed on E. coli UT5600(DE3) by autodisplay (plasmid pCR33)] was tested, and the binding [2] was “binds”.

PCPAPRAPKLSI [library peptide B4 displayed on E. coli UT5600(DE3) by autodisplay (plasmid pCR36)] was tested, and the binding [3] was “binds”.
